Laboratory results published in the supplement of paper PMC10849652.
This is one part of the list.

Amino acid sequences for entries named in this document (tags omitted). A change or cut given only in a name is not applied to a line headed by its entry.
UniProt Q8IYU8: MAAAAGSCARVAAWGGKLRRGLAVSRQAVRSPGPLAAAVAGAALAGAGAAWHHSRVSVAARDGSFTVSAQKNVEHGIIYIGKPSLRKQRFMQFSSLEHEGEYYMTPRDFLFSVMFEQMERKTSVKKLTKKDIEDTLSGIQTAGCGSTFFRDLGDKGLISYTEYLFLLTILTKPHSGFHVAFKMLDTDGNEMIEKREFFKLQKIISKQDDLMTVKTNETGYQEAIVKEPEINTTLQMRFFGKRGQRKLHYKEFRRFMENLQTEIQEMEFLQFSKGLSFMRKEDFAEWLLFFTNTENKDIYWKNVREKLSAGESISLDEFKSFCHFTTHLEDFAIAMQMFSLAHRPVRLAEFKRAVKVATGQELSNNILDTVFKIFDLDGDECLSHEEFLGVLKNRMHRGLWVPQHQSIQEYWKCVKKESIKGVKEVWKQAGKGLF
UniProt Q5XKP0: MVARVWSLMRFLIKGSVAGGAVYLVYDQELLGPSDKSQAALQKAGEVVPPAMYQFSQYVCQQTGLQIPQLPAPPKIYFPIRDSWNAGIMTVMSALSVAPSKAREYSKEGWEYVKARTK
UniProt Q8N108: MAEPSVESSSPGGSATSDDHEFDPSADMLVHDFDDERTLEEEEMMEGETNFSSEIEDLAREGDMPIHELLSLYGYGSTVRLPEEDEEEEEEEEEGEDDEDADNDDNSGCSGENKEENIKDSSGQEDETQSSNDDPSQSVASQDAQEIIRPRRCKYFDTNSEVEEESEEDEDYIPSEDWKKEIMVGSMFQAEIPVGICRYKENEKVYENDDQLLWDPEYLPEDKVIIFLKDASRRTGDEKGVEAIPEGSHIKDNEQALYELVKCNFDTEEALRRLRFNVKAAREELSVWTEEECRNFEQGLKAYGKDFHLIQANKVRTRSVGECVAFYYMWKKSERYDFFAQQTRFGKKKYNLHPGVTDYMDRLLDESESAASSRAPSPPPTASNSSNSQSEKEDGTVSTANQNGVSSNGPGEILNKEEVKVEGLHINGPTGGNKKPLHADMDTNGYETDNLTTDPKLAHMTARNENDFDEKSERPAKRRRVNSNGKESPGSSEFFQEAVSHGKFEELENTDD
UniProt P14174: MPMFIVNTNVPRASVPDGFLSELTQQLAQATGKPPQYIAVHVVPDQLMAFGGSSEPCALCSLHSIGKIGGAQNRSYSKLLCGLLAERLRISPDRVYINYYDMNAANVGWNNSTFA
UniProt Q14149: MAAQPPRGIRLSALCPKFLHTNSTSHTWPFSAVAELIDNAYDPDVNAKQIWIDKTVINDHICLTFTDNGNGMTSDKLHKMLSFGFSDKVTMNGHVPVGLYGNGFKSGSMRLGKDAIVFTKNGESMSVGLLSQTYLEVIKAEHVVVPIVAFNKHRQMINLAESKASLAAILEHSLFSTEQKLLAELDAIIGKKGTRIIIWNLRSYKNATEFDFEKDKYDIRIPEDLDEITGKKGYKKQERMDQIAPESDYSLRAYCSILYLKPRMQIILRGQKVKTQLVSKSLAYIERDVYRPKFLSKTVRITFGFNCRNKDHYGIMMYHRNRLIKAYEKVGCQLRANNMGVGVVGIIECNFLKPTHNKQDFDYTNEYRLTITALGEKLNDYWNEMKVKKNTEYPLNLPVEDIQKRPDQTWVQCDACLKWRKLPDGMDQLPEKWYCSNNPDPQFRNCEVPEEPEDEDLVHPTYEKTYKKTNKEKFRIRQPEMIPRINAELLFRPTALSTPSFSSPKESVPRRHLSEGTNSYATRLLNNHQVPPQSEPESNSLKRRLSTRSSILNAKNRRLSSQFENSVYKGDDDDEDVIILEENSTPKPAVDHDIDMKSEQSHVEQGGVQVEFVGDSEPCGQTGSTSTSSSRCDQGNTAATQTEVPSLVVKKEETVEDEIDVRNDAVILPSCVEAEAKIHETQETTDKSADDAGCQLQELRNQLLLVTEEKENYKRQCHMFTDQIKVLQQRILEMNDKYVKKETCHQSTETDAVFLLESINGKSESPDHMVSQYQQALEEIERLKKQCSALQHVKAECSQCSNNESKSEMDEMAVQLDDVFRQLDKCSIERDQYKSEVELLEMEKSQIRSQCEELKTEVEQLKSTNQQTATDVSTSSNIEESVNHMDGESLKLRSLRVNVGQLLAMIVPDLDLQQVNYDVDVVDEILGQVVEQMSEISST
UniProt Q9H000: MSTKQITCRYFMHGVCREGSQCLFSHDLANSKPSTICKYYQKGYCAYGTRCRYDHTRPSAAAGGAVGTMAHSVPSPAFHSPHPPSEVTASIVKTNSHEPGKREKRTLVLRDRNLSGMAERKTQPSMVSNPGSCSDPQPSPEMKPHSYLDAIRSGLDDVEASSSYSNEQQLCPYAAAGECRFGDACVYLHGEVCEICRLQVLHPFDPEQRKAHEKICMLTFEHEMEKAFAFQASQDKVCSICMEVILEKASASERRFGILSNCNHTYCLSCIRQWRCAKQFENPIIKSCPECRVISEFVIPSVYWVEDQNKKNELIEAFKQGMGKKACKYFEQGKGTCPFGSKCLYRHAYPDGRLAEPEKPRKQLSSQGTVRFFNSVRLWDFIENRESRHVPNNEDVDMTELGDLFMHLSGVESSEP
UniProt Q9BRT3: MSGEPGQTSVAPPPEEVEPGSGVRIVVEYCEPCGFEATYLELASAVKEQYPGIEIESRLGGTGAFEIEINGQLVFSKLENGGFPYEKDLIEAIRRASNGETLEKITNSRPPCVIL
UniProt Q7Z3U7: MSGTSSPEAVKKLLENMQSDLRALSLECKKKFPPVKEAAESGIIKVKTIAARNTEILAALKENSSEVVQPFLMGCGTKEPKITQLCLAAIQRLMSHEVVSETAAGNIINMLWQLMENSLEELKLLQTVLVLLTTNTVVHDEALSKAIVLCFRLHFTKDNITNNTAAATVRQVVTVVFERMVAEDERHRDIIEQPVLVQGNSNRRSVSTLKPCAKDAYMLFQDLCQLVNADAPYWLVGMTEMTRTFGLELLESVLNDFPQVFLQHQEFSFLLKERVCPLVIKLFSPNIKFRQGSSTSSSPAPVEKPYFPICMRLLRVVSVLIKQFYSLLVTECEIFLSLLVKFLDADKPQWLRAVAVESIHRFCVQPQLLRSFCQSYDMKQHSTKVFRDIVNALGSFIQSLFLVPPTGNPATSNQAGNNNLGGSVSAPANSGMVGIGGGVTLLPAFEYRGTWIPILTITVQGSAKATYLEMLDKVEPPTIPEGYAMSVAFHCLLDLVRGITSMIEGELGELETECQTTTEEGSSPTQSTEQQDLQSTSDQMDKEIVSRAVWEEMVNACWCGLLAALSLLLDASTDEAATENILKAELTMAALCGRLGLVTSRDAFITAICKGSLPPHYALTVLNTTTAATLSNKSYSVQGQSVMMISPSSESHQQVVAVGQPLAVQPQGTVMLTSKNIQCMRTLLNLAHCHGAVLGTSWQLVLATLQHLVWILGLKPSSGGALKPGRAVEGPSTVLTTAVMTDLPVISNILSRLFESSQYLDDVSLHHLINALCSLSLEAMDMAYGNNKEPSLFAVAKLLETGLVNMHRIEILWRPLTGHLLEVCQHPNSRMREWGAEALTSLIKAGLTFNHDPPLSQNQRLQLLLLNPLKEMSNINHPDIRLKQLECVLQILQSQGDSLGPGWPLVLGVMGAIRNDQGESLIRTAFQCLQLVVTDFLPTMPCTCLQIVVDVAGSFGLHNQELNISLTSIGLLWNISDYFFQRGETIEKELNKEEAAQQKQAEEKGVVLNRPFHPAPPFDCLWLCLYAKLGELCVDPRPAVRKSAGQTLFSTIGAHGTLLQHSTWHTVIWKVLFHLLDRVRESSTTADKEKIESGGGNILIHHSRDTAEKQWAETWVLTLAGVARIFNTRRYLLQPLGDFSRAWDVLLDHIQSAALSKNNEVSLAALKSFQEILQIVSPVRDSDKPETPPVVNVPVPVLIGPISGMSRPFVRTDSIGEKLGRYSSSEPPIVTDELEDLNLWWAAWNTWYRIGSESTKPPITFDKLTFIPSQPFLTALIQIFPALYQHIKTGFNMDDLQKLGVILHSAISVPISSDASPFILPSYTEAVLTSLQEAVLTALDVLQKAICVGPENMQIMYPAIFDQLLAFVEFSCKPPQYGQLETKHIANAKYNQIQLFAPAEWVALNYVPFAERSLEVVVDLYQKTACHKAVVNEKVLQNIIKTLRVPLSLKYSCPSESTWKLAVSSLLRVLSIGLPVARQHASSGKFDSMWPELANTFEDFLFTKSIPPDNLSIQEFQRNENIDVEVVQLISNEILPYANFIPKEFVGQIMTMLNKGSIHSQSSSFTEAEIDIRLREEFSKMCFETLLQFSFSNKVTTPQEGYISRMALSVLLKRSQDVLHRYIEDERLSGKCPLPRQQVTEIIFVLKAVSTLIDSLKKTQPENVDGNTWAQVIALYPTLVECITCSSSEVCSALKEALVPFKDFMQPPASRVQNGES
UniProt Q9NQG6: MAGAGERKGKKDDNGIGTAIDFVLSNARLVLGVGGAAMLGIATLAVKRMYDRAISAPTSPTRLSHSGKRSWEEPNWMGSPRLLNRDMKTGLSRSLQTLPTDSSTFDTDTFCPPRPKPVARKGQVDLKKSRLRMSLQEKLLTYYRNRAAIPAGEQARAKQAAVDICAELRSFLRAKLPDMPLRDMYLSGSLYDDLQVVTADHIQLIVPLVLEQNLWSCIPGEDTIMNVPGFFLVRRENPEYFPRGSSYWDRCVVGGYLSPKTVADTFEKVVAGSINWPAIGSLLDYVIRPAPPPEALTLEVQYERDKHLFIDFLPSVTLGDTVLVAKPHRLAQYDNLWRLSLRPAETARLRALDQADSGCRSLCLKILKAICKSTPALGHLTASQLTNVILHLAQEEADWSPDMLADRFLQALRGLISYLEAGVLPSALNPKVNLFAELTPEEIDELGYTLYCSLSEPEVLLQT
UniProt P39210: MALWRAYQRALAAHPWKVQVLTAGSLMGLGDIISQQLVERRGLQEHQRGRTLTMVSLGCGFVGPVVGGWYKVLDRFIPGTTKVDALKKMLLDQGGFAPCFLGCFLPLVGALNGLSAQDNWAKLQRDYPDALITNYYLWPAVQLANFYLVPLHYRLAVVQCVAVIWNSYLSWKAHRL
UniProt Q9NYP9: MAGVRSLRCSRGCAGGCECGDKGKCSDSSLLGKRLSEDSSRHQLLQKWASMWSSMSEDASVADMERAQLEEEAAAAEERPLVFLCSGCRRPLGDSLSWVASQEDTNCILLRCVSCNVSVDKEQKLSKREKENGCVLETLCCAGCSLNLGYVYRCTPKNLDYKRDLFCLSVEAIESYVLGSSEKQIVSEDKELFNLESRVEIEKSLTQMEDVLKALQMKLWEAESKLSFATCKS
UniProt Q9BVC4, whole entry, looked up: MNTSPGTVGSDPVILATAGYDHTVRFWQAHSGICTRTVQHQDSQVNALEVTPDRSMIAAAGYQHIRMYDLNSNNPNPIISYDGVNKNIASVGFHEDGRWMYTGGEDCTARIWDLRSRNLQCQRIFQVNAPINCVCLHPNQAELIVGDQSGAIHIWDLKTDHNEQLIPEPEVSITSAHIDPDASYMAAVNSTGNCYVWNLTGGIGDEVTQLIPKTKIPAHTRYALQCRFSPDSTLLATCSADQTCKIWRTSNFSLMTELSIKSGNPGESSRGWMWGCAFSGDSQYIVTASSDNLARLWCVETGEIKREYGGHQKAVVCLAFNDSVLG
UniProt Q6WCQ1: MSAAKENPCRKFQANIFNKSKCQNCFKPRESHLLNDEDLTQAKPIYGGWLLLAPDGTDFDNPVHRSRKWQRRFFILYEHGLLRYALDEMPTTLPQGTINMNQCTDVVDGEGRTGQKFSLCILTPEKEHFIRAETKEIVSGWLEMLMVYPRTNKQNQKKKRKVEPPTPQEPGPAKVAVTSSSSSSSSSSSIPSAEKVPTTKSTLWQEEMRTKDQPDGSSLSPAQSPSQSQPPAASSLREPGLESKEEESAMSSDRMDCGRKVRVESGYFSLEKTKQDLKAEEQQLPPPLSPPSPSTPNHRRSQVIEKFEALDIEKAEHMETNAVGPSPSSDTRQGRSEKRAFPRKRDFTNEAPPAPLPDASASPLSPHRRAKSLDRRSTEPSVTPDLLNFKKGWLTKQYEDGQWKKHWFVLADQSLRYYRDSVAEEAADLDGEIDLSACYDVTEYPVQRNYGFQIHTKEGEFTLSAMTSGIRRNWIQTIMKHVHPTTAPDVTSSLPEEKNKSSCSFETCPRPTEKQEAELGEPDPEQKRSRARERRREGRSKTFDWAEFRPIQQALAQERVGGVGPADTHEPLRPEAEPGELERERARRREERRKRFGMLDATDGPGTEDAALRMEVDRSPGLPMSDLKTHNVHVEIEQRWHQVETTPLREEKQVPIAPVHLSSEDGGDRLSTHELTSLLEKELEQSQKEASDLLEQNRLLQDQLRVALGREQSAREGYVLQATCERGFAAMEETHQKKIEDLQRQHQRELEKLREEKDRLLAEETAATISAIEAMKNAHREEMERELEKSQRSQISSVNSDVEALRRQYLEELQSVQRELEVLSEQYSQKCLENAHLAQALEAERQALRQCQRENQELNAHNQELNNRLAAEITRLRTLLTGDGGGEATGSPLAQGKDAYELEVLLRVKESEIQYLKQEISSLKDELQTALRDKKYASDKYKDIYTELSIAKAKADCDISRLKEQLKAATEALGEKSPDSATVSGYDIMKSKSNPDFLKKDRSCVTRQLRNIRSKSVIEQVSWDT

compound: C1=CC(=CC=C1C2=NC3=C(N2)C=C(C=C3)C(=O)N)OC4=CC=C(C=C4)Cl; assay: log2 fold change, soluble protein after heating vs DMSO (PISA); higher = thermal stabilisation; K562 cells, 10 uM, 30 min; active = over 0.2 and 3.5 SD of the protein, either way, in both replicates (recomputed)
In short: (§1)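 K562 cells (2×10^6 cells/mL) were treated with 10 μM compound for 30 min, and aliquots were heated for 3 min over 48°C-58°C. Pooled aliquots were extracted in PBS with 0.5% NP-40 at 4°C, and the supernatant after 21,000xg for 90 min was measured by TMTpro 16plex LC-MS/MS with channel sums equalised. Reported thermal stability, relative to control samples and from duplicates, is a log2 fold change.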

log2 fold change, inactive:
MPP1 (UniProt Q00013) 0.016, MICU2 (UniProt Q8IYU8) -0.002, MICOS13 (UniProt Q5XKP0) -0.007, MIER1 isoform 12 (UniProt Q8N108) -0.031, MPHOSPH10 (UniProt O00566) -0.023, MOCS3 (UniProt O95396) 0.062, MINK1 (UniProt Q8N4C8) 0.036, MIF (UniProt P14174) 0.033, MPDU1 (UniProt O75352) 0.001, MORC3 (UniProt Q14149) 0.035, MKRN2 (UniProt Q9H000) 0.013, MRPL46 (UniProt Q9H2W6) 0.011, MIEN1 (UniProt Q9BRT3) -0.02, MRPL47 (UniProt Q9HD33) 0.096, MON2 isoform 5 (UniProt Q7Z3U7) -0.019, MRPL34 (UniProt Q9BQ48) 0.101, MRPL55 isoform 2 (UniProt Q7Z7F7) -0.024, MLX (UniProt Q9UH92) 0.062, MRPL39 (UniProt Q9NYK5) 0.103, MRPL50 (UniProt Q8N5N7) 0.004, MITD1 (UniProt Q8WV92) 0.037, MIEF1 (UniProt Q9NQG6) 0.021, MICU1 isoform 3 (UniProt Q9BPX6) 0.002, MON1B (UniProt Q7L1V2) 0.023, MPV17 (UniProt P39210) -0.162, MIS12 (UniProt Q9H081) 0.002, MND1 (UniProt Q9BWT6) -0.002, MIS18A (UniProt Q9NYP9) -0.001, MLST8 (UniProt Q9BVC4) 0.102, MNAT1 (UniProt P51948) 0.012, MORF4L2 (UniProt Q15014) 0.02, MIEF1 (UniProt L0R8F8) -0.022, MKNK1 (UniProt Q9BUB5) 0, MOV10 (UniProt Q9HCE1) 0.026, MRPL57 (UniProt Q9BQC6) 0.065, MMS19 isoform 8 (UniProt Q96T76) -0.025, MPRIP isoform 2 (UniProt Q6WCQ1) 0.041, MICAL3 (UniProt Q7RTP6) -0.001

compound: C1=CC2=C(C=CC(=C2)/C=C\3/C(=O)NC(=NCC4=CC=CS4)S3)N=C1; assay: as above
In short: as §1

log2 fold change, inactive:
MPP1 (UniProt Q00013) 0.004, MICU2 (UniProt Q8IYU8) -0.038, MICOS13 (UniProt Q5XKP0) 0.001, MIER1 isoform 12 (UniProt Q8N108) 0.024, MPHOSPH10 (UniProt O00566) 0.031, MOCS3 (UniProt O95396) 0.057, MINK1 (UniProt Q8N4C8) -0.045, MIF (UniProt P14174) -0.07, MPDU1 (UniProt O75352) 0.012, MORC3 (UniProt Q14149) -0.024, MKRN2 (UniProt Q9H000) -0.058, MRPL46 (UniProt Q9H2W6) -0.054, MIEN1 (UniProt Q9BRT3) 0.033, MRPL47 (UniProt Q9HD33) -0.002, MON2 isoform 5 (UniProt Q7Z3U7) 0.016, MRPL34 (UniProt Q9BQ48) -0.048, MRPL55 isoform 2 (UniProt Q7Z7F7) 0, MLX (UniProt Q9UH92) 0.032, MRPL39 (UniProt Q9NYK5) -0.028, MRPL50 (UniProt Q8N5N7) -0.008, MITD1 (UniProt Q8WV92) 0.044, MIEF1 (UniProt Q9NQG6) 0.072, MICU1 isoform 3 (UniProt Q9BPX6) -0.009, MON1B (UniProt Q7L1V2) 0.089, MPV17 (UniProt P39210) 0.11, MIS12 (UniProt Q9H081) 0.107, MND1 (UniProt Q9BWT6) -0.011, MIS18A (UniProt Q9NYP9) -0.026, MLST8 (UniProt Q9BVC4) 0.116, MNAT1 (UniProt P51948) -0.012, MORF4L2 (UniProt Q15014) -0.03, MIEF1 (UniProt L0R8F8) -0.073, MKNK1 (UniProt Q9BUB5) 0.011, MOV10 (UniProt Q9HCE1) -0.002, MRPL57 (UniProt Q9BQC6) 0.012, MMS19 isoform 8 (UniProt Q96T76) 0.113, MPRIP isoform 2 (UniProt Q6WCQ1) 0.052, MICAL3 (UniProt Q7RTP6) 0.112
